# Data reported in article PMC8384837.
# Numbering of substitutions follows the chain as printed. This is one part of the list. For some of these results: At the low end of the ranking the order means little. For some of these results: The source does not settle which construct or isoform was used.
# How the values were obtained:
# Settings in all cases: yeast three-hybrid, YBZ-1, SC-Leu-His + 0.5 mM 3-AT, 4 days
# [1] = molecular target: T1, PUM1 PUF domain R1-QFR R2-VFQ R7-NPG S863Q + R864F + Q867R + N899V + Y900F + S1079N + N1080P + E1083G (UniProt Q14671)
# T1 sequence: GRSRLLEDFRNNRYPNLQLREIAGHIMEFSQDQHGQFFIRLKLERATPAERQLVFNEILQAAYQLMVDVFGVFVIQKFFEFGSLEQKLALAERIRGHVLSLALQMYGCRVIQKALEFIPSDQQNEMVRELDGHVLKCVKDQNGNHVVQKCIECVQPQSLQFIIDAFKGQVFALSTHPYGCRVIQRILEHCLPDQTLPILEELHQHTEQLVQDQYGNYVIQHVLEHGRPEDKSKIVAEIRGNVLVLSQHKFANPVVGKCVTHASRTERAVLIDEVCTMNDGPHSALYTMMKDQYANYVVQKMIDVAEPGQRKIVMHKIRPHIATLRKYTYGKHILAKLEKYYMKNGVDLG
# [2] = molecular target: T2, PUM1 PUF domain R2-VFQ R3-THE R4-TFR N899V + Y900F + C935T + R936H + Q939E + N971T + H972F + Q975R (UniProt Q14671)
# T2 sequence: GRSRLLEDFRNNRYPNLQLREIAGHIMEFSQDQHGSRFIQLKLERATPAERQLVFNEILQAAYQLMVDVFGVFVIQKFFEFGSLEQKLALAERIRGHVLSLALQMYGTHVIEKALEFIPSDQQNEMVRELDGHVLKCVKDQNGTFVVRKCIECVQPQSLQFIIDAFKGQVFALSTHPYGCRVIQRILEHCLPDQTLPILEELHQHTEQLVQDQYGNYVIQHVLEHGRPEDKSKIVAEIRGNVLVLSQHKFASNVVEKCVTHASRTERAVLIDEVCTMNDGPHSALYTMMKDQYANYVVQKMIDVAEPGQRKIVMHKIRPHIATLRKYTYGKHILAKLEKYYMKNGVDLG
# [3] = molecular target: T3, PUM1 PUF domain R3-THE R4-TFR C935T + R936H + Q939E + N971T + H972F + Q975R (UniProt Q14671)
# T3 sequence: T2 sequence with V72N, F73Y
# [4] = molecular target: T4, PUM1 PUF domain R3-THE R4-TFR R7-NPG C935T + R936H + Q939E + N971T + H972F + Q975R + S1079N + N1080P + E1083G (Homo sapiens) (UniProt Q14671)
# T4 sequence: T2 sequence with V72N, F73Y, S252N, N253P, E256G
# [5] = molecular target: T5, PUM1 PUF domain R5-PHQ R6-SWD C1007P + R1008H + N1043S + Y1044W + Q1047D (UniProt Q14671)
# T5 sequence: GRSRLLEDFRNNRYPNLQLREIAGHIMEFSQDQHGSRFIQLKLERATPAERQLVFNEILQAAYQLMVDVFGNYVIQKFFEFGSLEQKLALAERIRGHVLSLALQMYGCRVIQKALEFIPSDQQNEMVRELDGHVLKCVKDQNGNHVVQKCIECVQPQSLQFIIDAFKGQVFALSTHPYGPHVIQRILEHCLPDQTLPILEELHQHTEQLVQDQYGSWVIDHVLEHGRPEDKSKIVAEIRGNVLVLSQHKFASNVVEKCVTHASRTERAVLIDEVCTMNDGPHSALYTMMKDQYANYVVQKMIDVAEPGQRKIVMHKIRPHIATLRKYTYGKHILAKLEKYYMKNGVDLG
# [6] = molecular target: T6, PUM1 PUF domain R6-SWD R7-NPG N1043S + Y1044W + Q1047D + S1079N + N1080P + E1083G (Homo sapiens) (UniProt Q14671)
# T6 sequence: T5 sequence with P180C, H181R, S252N, N253P, E256G
# [7] = molecular target: T7, PUM1 PUF domain R1-QFR R2-VFQ R6-SWD S863Q + R864F + Q867R + N899V + Y900F + N1043S + Y1044W + Q1047D (UniProt Q14671)
# T7 sequence: T1 sequence with N216S, Y217W, Q220D, N252S, P253N, G256E
# [8] = molecular target: T8, PUM1 PUF domain R6-RVT N1043R + Y1044V + Q1047T (UniProt Q14671)
# T8 sequence: T5 sequence with P180C, H181R, S216R, W217V, D220T
# [9] = molecular target: T9, PUM1 PUF domain R3-THE R4-TFR R7-NPG C935T + R936H + Q939E + N971T + H972F + Q975R + S1079N + N1080P + E1083G (UniProt Q14671)
# T9 sequence: T2 sequence with V72N, F73Y, S252N, N253P, E256G
# [10] = molecular target: T10, PUM1 PUF domain R1-QFR R2-VFQ R7-NPG S863Q + R864F + Q867R + N899V + Y900F + S1079N + N1080P + E1083G (Homo sapiens) (UniProt Q14671)
# T10 sequence: T1 sequence
sequence,measurement,setting,value
GGCUAGAACUAGUGGAUCCCCCGGCGCCCGGCGGCUCGAGCCCGGGUAAGUGUAAAUGGUCUGCAUGCCGCCGGGCGCCAUGCCUGCAGGUCGACUCUAGAAAACAUG,binding signal (log2 enrichment (interaction score)),[1],-5.95
same,binding signal (log2 enrichment (interaction score)),[2],-5.13
same,binding signal (log2 enrichment (interaction score)),[3],-6.95
same,binding signal (log2 enrichment (interaction score)),[4],-1.65
same,binding signal (log2 enrichment (interaction score)),[5],< -8.42
same,binding signal (log2 enrichment (interaction score)),[6],-1.82
GGCUAGAACUAGUGGAUCCCCCGGCGCCCGGCGGCUCGAGCCCGGGUAAGCUCUAAUUGUCUGCAUGCCGCCGGGCGCCAUGCCUGCAGGUCGACUCUAGAAAACAUG,binding signal (log2 enrichment (interaction score)),[7],-5.37
same,binding signal (log2 enrichment (interaction score)),[1],< -3.11
same,binding signal (log2 enrichment (interaction score)),[4],< -1.74
GGCUAGAACUAGUGGAUCCCCCGGCGCCCGGCGGCUCGAGCCCGGGUAAGUUCAUAUAGUCUGCAUGCCGCCGGGCGCCAUGCCUGCAGGUCGACUCUAGAAAACAUG,binding signal (log2 enrichment (interaction score)),[3],-6.76
same,binding signal (log2 enrichment (interaction score)),[5],< -7.9
GGCUAGAACUAGUGGAUCCCCCGGCGCCCGGCGGCUCGAGCCCGGGUAAGUGAAAAUAGUCUGCAUGCCGCCGGGCGCCAUGCCUGCAGGUCGACUCUAGAAAACAUG,binding signal (log2 enrichment (interaction score)),[7],-6.09
same,binding signal (log2 enrichment (interaction score)),[1],-6.41
same,binding signal (log2 enrichment (interaction score)),[2],-5.19
same,binding signal (log2 enrichment (interaction score)),[3],-5.67
same,binding signal (log2 enrichment (interaction score)),[5],-2.84
same,binding signal (log2 enrichment (interaction score)),[8],< -9.2
same,binding signal (log2 enrichment (interaction score)),[6],-0.67
GGCUAGAACUAGUGGAUCCCCCGGCGCCCGGCGGCUCGAGCCCGGGUAAGUGUACGACGUCUGCAUGCCGCCGGGCGCCAUGCCUGCAGGUCGACUCUAGAAAACAUG,binding signal (log2 enrichment (interaction score)),[7],-2.41
same,binding signal (log2 enrichment (interaction score)),[1],-3.64
same,binding signal (log2 enrichment (interaction score)),[2],-5.36
same,binding signal (log2 enrichment (interaction score)),[3],-6.97
same,binding signal (log2 enrichment (interaction score)),[4],-1.72
same,binding signal (log2 enrichment (interaction score)),[6],-0.84
GGCUAGAACUAGUGGAUCCCCCGGCGCCCGGCGGCUCGAGCCCGGGUAAGGUUACGUAGUCUGCAUGCCGCCGGGCGCCAUGCCUGCAGGUCGACUCUAGAAAACAUG,binding signal (log2 enrichment (interaction score)),[7],-6.33
same,binding signal (log2 enrichment (interaction score)),[3],-6.88
same,binding signal (log2 enrichment (interaction score)),[6],-1.66
GGCUAGAACUAGUGGAUCCCCCGGCGCCCGGCGGCUCGAGCCCGGGUAAGUGGAAAUAGUCUGCAUGCCGCCGGGCGCCAUGCCUGCAGGUCGACUCUAGAAAACAUG,binding signal (log2 enrichment (interaction score)),[7],-6.19
same,binding signal (log2 enrichment (interaction score)),[1],-5.38
same,binding signal (log2 enrichment (interaction score)),[2],-5.58
same,binding signal (log2 enrichment (interaction score)),[3],-7
same,binding signal (log2 enrichment (interaction score)),[4],-1.74
same,binding signal (log2 enrichment (interaction score)),[8],< -8.08
same,binding signal (log2 enrichment (interaction score)),[6],-0.48
GGCUAGAACUAGUGGAUCCCCCGGCGCCCGGCGGCUCGAGCCCGGGUAAGUUGGAAUAGUCUGCAUGCCGCCGGGCGCCAUGCCUGCAGGUCGACUCUAGAAAACAUG,binding signal (log2 enrichment (interaction score)),[7],-6.26
same,binding signal (log2 enrichment (interaction score)),[1],-5.02
same,binding signal (log2 enrichment (interaction score)),[2],-4.28
same,binding signal (log2 enrichment (interaction score)),[5],-5.78
GGCUAGAACUAGUGGAUCCCCCGGCGCCCGGCGGCUCGAGCCCGGGUAAGUCGAAGUAGUCUGCAUGCCGCCGGGCGCCAUGCCUGCAGGUCGACUCUAGAAAACAUG,binding signal (log2 enrichment (interaction score)),[7],-5.09
same,binding signal (log2 enrichment (interaction score)),[1],-5.86
same,binding signal (log2 enrichment (interaction score)),[2],-5.56
same,binding signal (log2 enrichment (interaction score)),[3],-6.87
same,binding signal (log2 enrichment (interaction score)),[5],-7.29
same,binding signal (log2 enrichment (interaction score)),[6],-1.84
GGCUAGAACUAGUGGAUCCCCCGGCGCCCGGCGGCUCGAGCCCGGGUAAGUAAUAGUCGUCUGCAUGCCGCCGGGCGCCAUGCCUGCAGGUCGACUCUAGAAAACAUG,binding signal (log2 enrichment (interaction score)),[7],-5.57
GGCUAGAACUAGUGGAUCCCCCGGCGCCCGGCGGCUCGAGCCCGGGUAAGUUGACGAGGUCUGCAUGCCGCCGGGCGCCAUGCCUGCAGGUCGACUCUAGAAAACAUG,binding signal (log2 enrichment (interaction score)),[7],-5.2
same,binding signal (log2 enrichment (interaction score)),[1],-4.76
same,binding signal (log2 enrichment (interaction score)),[2],-4.92
same,binding signal (log2 enrichment (interaction score)),[3],< -5.8
same,binding signal (log2 enrichment (interaction score)),[4],-1.06
GGCUAGAACUAGUGGAUCCCCCGGCGCCCGGCGGCUCGAGCCCGGGUAAGUUUCAACCGUCUGCAUGCCGCCGGGCGCCAUGCCUGCAGGUCGACUCUAGAAAACAUG,binding signal (log2 enrichment (interaction score)),[1],-4.89
GGCUAGAACUAGUGGAUCCCCCGGCGCCCGGCGGCUCGAGCCCGGGUAAGGGAAGAUAGUCUGCAUGCCGCCGGGCGCCAUGCCUGCAGGUCGACUCUAGAAAACAUG,binding signal (log2 enrichment (interaction score)),[7],-6.17
same,binding signal (log2 enrichment (interaction score)),[2],-5.22
same,binding signal (log2 enrichment (interaction score)),[3],-8
GGCUAGAACUAGUGGAUCCCCCGGCGCCCGGCGGCUCGAGCCCGGGUAAGUUAAAUGAGUCUGCAUGCCGCCGGGCGCCAUGCCUGCAGGUCGACUCUAGAAAACAUG,binding signal (log2 enrichment (interaction score)),[7],-6.52
same,binding signal (log2 enrichment (interaction score)),[9],< -2.43
same,binding signal (log2 enrichment (interaction score)),[5],-8
GGCUAGAACUAGUGGAUCCCCCGGCGCCCGGCGGCUCGAGCCCGGGUAAGUUUAAAACGUCUGCAUGCCGCCGGGCGCCAUGCCUGCAGGUCGACUCUAGAAAACAUG,binding signal (log2 enrichment (interaction score)),[7],-5.78
same,binding signal (log2 enrichment (interaction score)),[2],-3.83
same,binding signal (log2 enrichment (interaction score)),[9],-2.08
same,binding signal (log2 enrichment (interaction score)),[5],-8.38
same,binding signal (log2 enrichment (interaction score)),[6],-0.63
GGCUAGAACUAGUGGAUCCCCCGGCGCCCGGCGGCUCGAGCCCGGGUAAGCAGAUAUAGUCUGCAUGCCGCCGGGCGCCAUGCCUGCAGGUCGACUCUAGAAAACAUG,binding signal (log2 enrichment (interaction score)),[10],-0.83
same,binding signal (log2 enrichment (interaction score)),[2],-6.39
same,binding signal (log2 enrichment (interaction score)),[4],-1.71
same,binding signal (log2 enrichment (interaction score)),[5],< -7.42
GGCUAGAACUAGUGGAUCCCCCGGCGCCCGGCGGCUCGAGCCCGGGUAAGCAUAAUUAGUCUGCAUGCCGCCGGGCGCCAUGCCUGCAGGUCGACUCUAGAAAACAUG,binding signal (log2 enrichment (interaction score)),[10],-0.2
same,binding signal (log2 enrichment (interaction score)),[3],-8.03
same,binding signal (log2 enrichment (interaction score)),[5],< -7.46
GGCUAGAACUAGUGGAUCCCCCGGCGCCCGGCGGCUCGAGCCCGGGUAAGUUUGUUAGGUCUGCAUGCCGCCGGGCGCCAUGCCUGCAGGUCGACUCUAGAAAACAUG,binding signal (log2 enrichment (interaction score)),[1],-6.51
GGCUAGAACUAGUGGAUCCCCCGGCGCCCGGCGGCUCGAGCCCGGGUAAGUAGUAAUGGUCUGCAUGCCGCCGGGCGCCAUGCCUGCAGGUCGACUCUAGAAAACAUG,binding signal (log2 enrichment (interaction score)),[1],-4.77
GGCUAGAACUAGUGGAUCCCCCGGCGCCCGGCGGCUCGAGCCCGGGUAAGGCUUACUUGUCUGCAUGCCGCCGGGCGCCAUGCCUGCAGGUCGACUCUAGAAAACAUG,binding signal (log2 enrichment (interaction score)),[1],< -5.7
GGCUAGAACUAGUGGAUCCCCCGGCGCCCGGCGGCUCGAGCCCGGGUAAGUUUAACGCGUCUGCAUGCCGCCGGGCGCCAUGCCUGCAGGUCGACUCUAGAAAACAUG,binding signal (log2 enrichment (interaction score)),[1],-5.77

# Quoted at random: five entries already listed
sequence,measurement,setting,value
GGCUAGAACUAGUGGAUCCCCCGGCGCCCGGCGGCUCGAGCCCGGGUAAGCAGAUAUAGUCUGCAUGCCGCCGGGCGCCAUGCCUGCAGGUCGACUCUAGAAAACAUG,binding signal (log2 enrichment (interaction score)),[2],-6.39
GGCUAGAACUAGUGGAUCCCCCGGCGCCCGGCGGCUCGAGCCCGGGUAAGUCGAAGUAGUCUGCAUGCCGCCGGGCGCCAUGCCUGCAGGUCGACUCUAGAAAACAUG,binding signal (log2 enrichment (interaction score)),[5],-7.29
GGCUAGAACUAGUGGAUCCCCCGGCGCCCGGCGGCUCGAGCCCGGGUAAGGGAAGAUAGUCUGCAUGCCGCCGGGCGCCAUGCCUGCAGGUCGACUCUAGAAAACAUG,binding signal (log2 enrichment (interaction score)),[2],-5.22
GGCUAGAACUAGUGGAUCCCCCGGCGCCCGGCGGCUCGAGCCCGGGUAAGCAUAAUUAGUCUGCAUGCCGCCGGGCGCCAUGCCUGCAGGUCGACUCUAGAAAACAUG,binding signal (log2 enrichment (interaction score)),[10],-0.2
GGCUAGAACUAGUGGAUCCCCCGGCGCCCGGCGGCUCGAGCCCGGGUAAGUUUAACGCGUCUGCAUGCCGCCGGGCGCCAUGCCUGCAGGUCGACUCUAGAAAACAUG,binding signal (log2 enrichment (interaction score)),[1],-5.77
